Consider one molecule from article PMC3692431, “Anticonvulsant Activity of B2, an Adenosine Analog, on Chemical Convulsant-Induced Seizures” (PLoS ONE, 2013).

The subject of the assay is picrotoxin-induced seizures. The class given is in vivo, mice. Particulars: 10 mg/kg i.p.; picrotoxin 3.5 mg/kg; P<0.001. The procedure:
KA was dissolved in saline and the pH was adjusted to neutrality. The final concentration of KA was 0.7 µg/µl, and the convulsant dose was 1 µl (i.c.v.). […] The selective adenosine receptor antagonist DPCPX or SCH58261 was administered (i.p.) 5 min before administration of B2 or vehicle.
The latency of seizure onset, number of seizures, and mortality rate was recorded for the picrotoxin-injected mice. For the PTZ-injected mice, we recorded the latency of seizure onset, number of seizures, and presence of clonic seizures.

Take `CN1C(=O)CN=C(c2ccccc2)c2cc(Cl)ccc21` [Diazepam, diazepam, reference compound]: the “protection against picrotoxin-induced seizures” value was “significantly protected”.
